Record: PubChem BioAssay AID1053208 (Peter MacCallum Cancer Centre, 2014)

Assay: 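Genes whose silencing cuts survival of bone tumour cells only with doxorubicin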 (primary screen)
System: mouse osteosarcoma cells, early-passage culture from an engineered mouse model of fibroblastic bone tumour
Reagents: siRNA pool against mouse genes, 40 nM
Timing: about 120 h (48 h before drug, then 72 h with drug)
Treatment: doxorubicin 100 nM for 72 h, roughly 30-40% inhibitory dose
Detection: 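Luminescent ATP signal taken as viability with or without 100 nM doxorubicin for 72 h; mean of two wells set against non-targeting siRNA and turned into robust z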
Scale: viability z-score with doxorubicin: higher = more viable cells under doxorubicin; viability z-score without drug: higher = more viable cells with knock-down alone
Call rule: 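Called active if knock-down leaves viability unchanged without drug (z within -2 to 2) but lowers it with doxorubicin (z at or under -2)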
This is one part, drawn at random, of about 17,000 deposited reagents. 788 of all reagents (4.7%) count as active. 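Calls rest on z-score classes alone; an extra cut-off of viability at most 70% of control was not applied to them.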 Further read-outs or replicates are left out here.

Depletion of Zfta (zinc finger translocation associated) [SID152298556] gave: combined z-score class no change with or without drug; viability z-score with doxorubicin 0.67; viability z-score without drug 1.18; inactive.
Knock-down of Or9s23 (olfactory receptor family 9 subfamily S member 23) [SID152325161] came out at: combined z-score class low cell count with doxorubicin only; viability z-score with doxorubicin -2.25; viability z-score without drug -1.52; active.
Depletion of Nadsyn1 (NAD synthetase 1) [SID152337677] gave: combined z-score class no change with or without drug; viability z-score with doxorubicin -1.46; viability z-score without drug -0.34; inactive.
Knock-down of Matcap2 (microtubule associated tyrosine carboxypeptidase 2) [SID152302282] gave: combined z-score class low cell count with doxorubicin only; viability z-score with doxorubicin -2.02; viability z-score without drug -0.51; active.
Dnajc14 (DnaJ heat shock protein family (Hsp40) member C14) [SID152320930] scored combined z-score class no change with or without drug; viability z-score with doxorubicin -0.79; viability z-score without drug 0.17; inactive.
Depletion of Tom1 (target of myb1 trafficking protein) [SID152299155] gave: combined z-score class no change with or without drug; viability z-score with doxorubicin -0.67; viability z-score without drug -0.51; inactive.
Bmp2 (bone morphogenetic protein 2) [SID152305480] showed combined z-score class no change with or without drug; viability z-score with doxorubicin 0.67; viability z-score without drug -0.51; inactive.
Copg2 (coatomer protein complex, subunit gamma 2) [SID152324349] gave combined z-score class no change with or without drug; viability z-score with doxorubicin 1.12; viability z-score without drug 0.17; inactive.
Knock-down of Or1j15 (olfactory receptor family 1 subfamily J member 15) [SID152321921] resulted in: combined z-score class no change with or without drug; viability z-score with doxorubicin -1.69; viability z-score without drug -1.52; inactive.
With knock-down of Gbp2 (guanylate binding protein 2) [SID152288159], the record shows combined z-score class no change with or without drug; viability z-score with doxorubicin 0; viability z-score without drug -1.85; inactive.
Actr2 (actin related protein 2) [SID152302844] showed combined z-score class low cell count without drug only; viability z-score with doxorubicin -1.35; viability z-score without drug -2.53; inactive.
Silencing of Vmn1r93 (vomeronasal 1 receptor 93) [SID152323822] came out at: combined z-score class no change with or without drug; viability z-score with doxorubicin -0.79; viability z-score without drug -0.84; inactive.
For Or6c76 (olfactory receptor family 6 subfamily C member 76) [SID152285192] the deposit lists combined z-score class no change with or without drug; viability z-score with doxorubicin 0.45; viability z-score without drug 0.51; inactive.
Silencing of Prom2 (prominin 2) [SID152299127] gave: combined z-score class no change with or without drug; viability z-score with doxorubicin -1.12; viability z-score without drug 0.17; inactive.
After knock-down of Tspan12 (tetraspanin 12) [SID152260553] the results were combined z-score class no change with or without drug; viability z-score with doxorubicin -0.22; viability z-score without drug -0.17; inactive.
Pim2 (Pim2, proto-oncogene, serine/threonine kinase) [SID152306969] gave combined z-score class no change with or without drug; viability z-score with doxorubicin 0.22; viability z-score without drug 0.67; inactive.
Gm5105 (predicted gene 5105) [SID152269904] scored combined z-score class no change with or without drug; viability z-score with doxorubicin 1.57; viability z-score without drug 0.84; inactive.
After knock-down of Tmprss11b (transmembrane protease, serine 11B) [SID152332579] the results were combined z-score class no change with or without drug; viability z-score with doxorubicin 0.56; viability z-score without drug 1.85; inactive.

Records above marked active (2):
Or9s23 (olfactory receptor family 9 subfamily S member 23) [SID152325161] — combined z-score class = low cell count with doxorubicin only; viability z-score with doxorubicin = -2.25; viability z-score without drug = -1.52; outcome = active
Matcap2 (microtubule associated tyrosine carboxypeptidase 2) [SID152302282] — combined z-score class = low cell count with doxorubicin only; viability z-score with doxorubicin = -2.02; viability z-score without drug = -0.51; outcome = active

Further entries follow.
With knock-down of Gemin7 (gem nuclear organelle associated protein 7) [SID152274001], the screen gave combined z-score class no change with or without drug; viability z-score with doxorubicin 0.45; viability z-score without drug 0.84; inactive.
With knock-down of Zc3h18 (zinc finger CCCH-type containing 18) [SID152306959], the record shows combined z-score class no change with or without drug; viability z-score with doxorubicin 0.79; viability z-score without drug 0.84; inactive.
Rchy1 (ring finger and CHY zinc finger domain containing 1) [SID152292262] showed combined z-score class no change with or without drug; viability z-score with doxorubicin 0.56; viability z-score without drug -0.34; inactive.
St6galnac3 [SID152332014] gave combined z-score class no change with or without drug; viability z-score with doxorubicin 0; viability z-score without drug -0.84; inactive.
After knock-down of Ints9 (integrator complex subunit 9) [SID152339301], the screen gave combined z-score class no change with or without drug; viability z-score with doxorubicin -0.67; viability z-score without drug 0.17; inactive.
After knock-down of Mycbpap (MYCBP associated protein) [SID152273010], the record shows combined z-score class no change with or without drug; viability z-score with doxorubicin 0; viability z-score without drug -0.17; inactive.
Golim4 (golgi integral membrane protein 4) [SID152261612] showed combined z-score class no change with or without drug; viability z-score with doxorubicin -0.45; viability z-score without drug -0.17; inactive.
Against Acaa1b (acetyl-Coenzyme A acyltransferase 1B) [SID152315366], the values are combined z-score class no change with or without drug; viability z-score with doxorubicin -0.45; viability z-score without drug 0.17; inactive.
Depletion of Slc13a2 [SID152327566] came out at: combined z-score class no change with or without drug; viability z-score with doxorubicin -0.11; viability z-score without drug 0.84; inactive.
After knock-down of Rab5b (RAB5B, member RAS oncogene family) [SID152319663], the record shows combined z-score class no change with or without drug; viability z-score with doxorubicin 0.11; viability z-score without drug 0.17; inactive.
